Measurements reported in PubChem BioAssay AID1259308 (NCATS, 2017).

Assay: 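Genes whose loss raises luciferase production in HEK293 cells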 (primary screen)
Cell system: human HEK293 embryonic kidney cells stably expressing firefly luciferase (HEK-CMV-Luc2-Hygro)
Reagents: single siRNA against human genes, 0.8 pmol siRNA per well
Timing: 72 h
Measurement: 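Reporter luminescence and viable-cell signal on separate replicate plates, given as percent of non-targeting control and median/MAD z-scores, plus per-cell luciferase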
Scale: total luciferase, z-score and total luciferase, % of control: higher = more reporter protein produced; luciferase per cell, z-score: higher = more reporter output per viable cell; viable cells, % of control: higher = more viable cells
Rule for the call: 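An siRNA counts as active if its total luciferase robust z-score exceeds 3; genes with two or more such siRNAs out of three were retested with fresh siRNAs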
Calls: active = raised luciferase; inactive = no rise
In all, the deposit lists about 59,000 reagents; shown is a part drawn at random. About 1,510 of them (2.6%) count as active. 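Calls use total luciferase alone and ignore viability, so some active siRNAs may act by altering cell number.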 Reagents against one gene are numbered here. Reagent sequences are not shown.

gene	reagent	total luciferase, z-score	total luciferase, % of control	luciferase per cell, z-score	viable cells, % of control	activity call
TMEM14DP	1	1.29	108	0.448	107	inactive
TMEM14DP	2	-1.4	54.1	0.122	58.6	inactive
TMEM14DP	3	1.08	103	0.886	91.5	inactive
HIBADH	1	0.434	90.5	0.341	92.5	inactive
HIBADH	2	0.228	86.4	-0.141	100	inactive
HIBADH	3	-2.46	32.9	-2.64	73.7	inactive
EP400P1	1	-1.7	48.1	-1.69	83.9	inactive
EP400P1	2	0.422	90.3	0.324	92.6	inactive
EP400P1	3	0.358	89	0.423	89	inactive
ZNF496	1	-1.34	55.2	1.92	37.3	inactive
ZNF496	2	0.681	95.4	1.27	76.3	inactive
ZNF496	3	-0.274	76.4	-0.501	97.5	inactive
GZMA	1	3.21	146	1.91	98.6	active
GZMA	2	-2.3	36.1	-2.78	84	inactive
GZMA	3	0.153	84.9	-0.17	99.2	inactive
ADAMTS6	1	1.97	121	1.23	97.9	inactive
ADAMTS6	2	0.502	91.9	0.323	94.3	inactive
ADAMTS6	3	0.207	86	-0.453	108	inactive
CFAP144P1	1	-0.433	73.3	1.44	56.1	inactive
CFAP144P1	2	-0.127	79.4	0.196	84.2	inactive
CFAP144P1	3	-2.33	35.5	-2.29	72.6	inactive
STK40	1	0.278	87.4	0.205	92.6	inactive
STK40	2	1.25	107	3.04	53.6	inactive
STK40	3	0.415	90.1	0.321	92.6	inactive
LMF1	1	0.518	92.2	2.22	57.5	inactive
LMF1	2	-0.53	71.3	-0.601	93.4	inactive
LMF1	3	-2.77	26.8	-3.65	78.3	inactive
LZTR1	1	-0.109	79.7	0.0102	88.8	inactive
LZTR1	2	-0.863	64.7	0.753	59.3	inactive
LZTR1	3	5.88	199	3.42	90.1	active
RIPOR2	1	-1.34	55.2	-0.0299	62.2	inactive
RIPOR2	2	-0.335	75.2	-0.398	93.3	inactive
RIPOR2	3	-0.525	71.4	-1.28	112	inactive
SKA2	1	-0.541	71.1	-0.422	88.8	inactive
SKA2	2	-0.693	68.1	-0.891	96.2	inactive
SKA2	3	-1.07	60.6	-1.08	90	inactive
PAX2	1	0.794	97.7	1.8	68	inactive
PAX2	2	-1.92	43.8	-0.322	53.2	inactive
PAX2	3	-1.47	52.7	-1.36	84.3	inactive
RWDD2A	1	0.864	99.1	1.54	73.9	inactive
RWDD2A	2	-0.111	79.7	-0.744	108	inactive
RWDD2A	3	-0.322	75.5	-0.627	99.5	inactive
ZNF580	1	1.51	112	1.62	81.6	inactive
ZNF580	2	-0.917	63.6	-1.32	101	inactive
ZNF580	3	0.536	92.5	1.43	71	inactive
NLRP4	1	0.725	96.3	-0.496	123	inactive
NLRP4	2	0.125	84.4	0.0353	93.4	inactive
NLRP4	3	0.496	91.7	0.671	85.9	inactive
SLED1	1	-1.62	49.6	-1.98	93.3	inactive
SLED1	2	-0.329	75.4	-0.553	97.4	inactive
SLED1	3	0.445	90.7	0.645	85.6	inactive
LPIN1	1	-0.346	75	-0.666	99.9	inactive
LPIN1	2	-0.107	79.8	-0.576	104	inactive
LPIN1	3	-0.678	68.4	-0.932	97.7	inactive
TMEM213	1	-1.87	44.7	-1.73	78.7	inactive
TMEM213	2	0.808	98	0.694	91.2	inactive
TMEM213	3	-0.891	64.2	-0.192	75.4	inactive
SLC39A8	1	-0.086	80.2	-0.17	93.7	inactive
SLC39A8	2	0.465	91.1	0.109	99	inactive
SLC39A8	3	-0.73	67.4	-0.881	94.9	inactive
XPO7	1	0.00887	82.1	-0.964	118	inactive
XPO7	2	-0.269	76.5	0.308	78.8	inactive
XPO7	3	0.136	84.6	0.399	85.1	inactive
SLC10A2	1	0.791	97.6	0.293	101	inactive
SLC10A2	2	-1	62	-1.56	104	inactive
SLC10A2	3	0.371	89.3	0.184	95	inactive
SOX1	1	-0.116	79.6	-0.909	113	inactive
SOX1	2	-0.479	72.4	-0.631	95.5	inactive
SOX1	3	1.4	110	0.0695	120	inactive
CES1	1	0.383	89.5	0.684	83.5	inactive
CES1	2	0.166	85.2	0.654	80.1	inactive
CES1	3	-0.758	66.8	-0.825	92.8	inactive
CLIC6	1	-0.57	70.6	-1.04	104	inactive
CLIC6	2	-0.291	76.1	-0.22	90.1	inactive
CLIC6	3	-0.139	79.1	-0.503	101	inactive

8 consecutive entries already listed:
gene	reagent	total luciferase, z-score	total luciferase, % of control	luciferase per cell, z-score	viable cells, % of control	activity call
ADAMTS6	1	1.97	121	1.23	97.9	inactive
ADAMTS6	2	0.502	91.9	0.323	94.3	inactive
ADAMTS6	3	0.207	86	-0.453	108	inactive
CFAP144P1	1	-0.433	73.3	1.44	56.1	inactive
CFAP144P1	2	-0.127	79.4	0.196	84.2	inactive
CFAP144P1	3	-2.33	35.5	-2.29	72.6	inactive
STK40	1	0.278	87.4	0.205	92.6	inactive
STK40	2	1.25	107	3.04	53.6	inactive
